Results reported in US9572799B2, “Pyrazolopyridine derivatives for use in the treatment of bladder cancer” (SANOFI, priority 2013, dated 2017).
Counter-ions that a name gives are not always drawn. Some of these results come from one statement about several compounds together. For some assays here: At least one read-out could not be matched to a standard name with certainty.

Legend:
[1] = test system: TCC97-7 bladder cancer cells carrying the Ser249Cys mutation of FGF-R3; experiment: Reduction of intracellular ATP content of TCC97-7 cells in serum-supplemented medium (Cell Titer-Glo); type: cell-based; conditions: at the dose of 1 or 10 μM
Description: Evaluation of the Capacity of FGF-R Antagonists to Reduce the ATP Content of TCC97-7 Bladder Cancer Cells Carrying the Ser249Cys Mutation of FGF-R3, Cultured in a Serum-Supplemented Medium
To do this, 3000 cells are seeded in 50 μl of complete medium (Ham-F/12, 1% FCS, 2 mM glutamine, non-essential amino acids, sodium pyruvate, 1% insulin/transferrin/selenium, hydrocortisone). 16 hours later, 50 μl of the various compounds are added at 2 and 20 μM after dilution in complete culture medium in order to obtain final concentrations of 1 and 10 μM. After 3 days, the ATP content of the cells is measured using the Cell Titer-Glo® Luminescent Cell Viability Assay kit (Promega, France) according to the supplier's recommendations. The percentage inhibition of the amount of intracellular ATP is calculated by considering the ATP content of the cells cultured in the absence of antagonist to be 0% inhibition. 100% inhibition would correspond to a well in which the ATP content is zero.
Thus, compounds 1 to 24 are capable of inhibiting the amount of intracellular ATP in TCC97-7 cells by more than 20% at the dose of 1 or 10 μM (Table No. 3).

[2] = test system: bladder cancer tumour cells of TCC97-7 type carrying the Ser249Cys mutation of FGF receptor 3; experiment: Inhibition of serum-induced proliferation of TCC97-7 bladder cancer cells (cell-covered surface area, Incucyte); type: cell-based; conditions: at the dose of 1 or 10 μM
Description: Evaluation of the Capacity of the FGF-R Antagonists to Inhibit Serum-Induced Proliferation of Bladder Cancer Tumour Cells of TCC97-7 Type Carrying the Ser249Cys Mutation of FGF Receptor 3
To do this, 2000 cells are seeded in the morning in 50 μl of complete medium (Ham-F/12, 1% FCS, 2 mM glutamine, non-essential amino acids, sodium pyruvate, 1% insulin/transferrin/selenium, hydrocortisone). In the evening, 50 μl of the various compounds are added at 2 or 20 μM after dilution in complete culture medium in order to obtain final concentrations of 1 or 10 μM. After 3 days, cell proliferation is evaluated by measuring the cell-covered surface area of a well of a 96 well plate. This surface area is measured using an Incucyte apparatus (Essen BioScience). The percentage inhibition of the cell proliferation is calculated by considering the surface area occupied by the TCC97-7 cells cultured in the absence of FGF-R antagonists to be 0% inhibition. 100% inhibition would correspond to a well no longer containing cells.
Thus, compounds 1 to 24 are capable of inhibiting TCC97-7 cell proliferation by more than 20% at the dose of 1 or 10 μM. (Table No. 2).

SMILES	inhibiting the amount of intracellular ATP in TCC97-7 cells [1]	inhibiting TCC97-7 cell proliferation [2]
N#Cc1cc(-c2cc(C(F)F)c3c(-c4ccccc4)n[nH]c3n2)ccc1N [compound 22, 2-Amino-5-(4-difluoromethyl-3-phenyl-1H-pyrazolo[3,4-b]pyridin-6-yl)benzonitrile hydrochloride]	more than 20%	more than 20%
O=c1[nH]c2ccc(-c3cc(C(F)(F)F)c4c(-c5ccccc5)n[nH]c4n3)cc2[nH]1 [compound 15, 5-(3-Phenyl-4-trifluoromethyl-1H-pyrazolo[3,4-b]pyridin-6-yl)-1,3-dihydrobenzoimidazol-2-one]	more than 20%	more than 20%
CN(C)c1ccc(-c2cc(C(F)(F)F)c3c(-c4ccccc4)n[nH]c3n2)cc1 [compound 19, Dimethyl-[4-(3-phenyl-4-trifluoromethyl-1H-pyrazolo[3,4-b]pyridin-6-yl)phenyl]amine]	more than 20%	more than 20%
CN(C)CCn1nc(-c2ccccc2)c2c(C(F)(F)F)cc(-c3ccc(N)c(C#N)c3)nc21 [compound 8, 2-Amino-5-[1-(2-dimethylamino-ethyl)-3-phenyl-4-trifluoromethyl-1H-pyrazolo[3,4-b]pyridin-6-yl]benzonitrile]	more than 20%	more than 20%
N#Cc1cc(-c2cc(C(F)(F)F)c3c(-c4ccccc4)n[nH]c3n2)ccc1F [compound 20, 2-Fluoro-5-(3-phenyl-4-trifluoromethyl-1H-pyrazolo[3,4-b]pyridin-6-yl)benzonitrile]	more than 20%	more than 20%
O=C(c1ccc(-c2cc(C(F)F)c3c(-c4ccccc4)n[nH]c3n2)cc1)N1CCCC1 [compound 5, [4-(4-Difluoromethyl-3-phenyl-1H-pyrazolo[3,4-b]pyridin-6-yl)phenyl]pyrrolidin-1-ylmethanone hydrochloride]	more than 20%	more than 20%
O=C(c1cccc(-c2cc(C(F)F)c3c(-c4ccccc4)n[nH]c3n2)c1)N1CCCC1 [compound 6, [3-(4-Difluoromethyl-3-phenyl-1H-pyrazolo[3,4-b]pyridin-6-yl)phenyl]pyrrolidin-1-ylmethanone hydrochloride]	more than 20%	more than 20%
Cn1nc(-c2ccccc2)c2c(C(F)(F)F)cc(-c3cccc(C(N)=O)c3)nc21 [compound 1, 3-(1-methyl-3-phenyl-4-trifluoromethyl-1H-pyrazolo[3,4-b]pyridin-6-yl)benzamide]	more than 20%	more than 20%
Cn1nc(-c2ccccc2)c2c(C(F)(F)F)cc(-c3ccc(C(=O)O)cc3)nc21 [compound 23, 4-(1-Methyl-3-phenyl-4-trifluoromethyl-1H-pyrazolo[3,4-b]pyridin-6-yl)benzoic acid]	more than 20%	more than 20%
FC(F)c1cc(-c2cccc(N3CCCCC3)c2)nc2[nH]nc(-c3ccccc3)c12 [compound 7, 4-Difluoromethyl-3-phenyl-6-(3-piperidin-1-ylphenyl)-1H-pyrazolo[3,4-b]pyridine hydrochloride]	more than 20%	more than 20%
N#Cc1cc(-c2cc(C(F)(F)F)c3c(-c4ccccc4)nn(CCN4CCCCC4)c3n2)ccc1N [compound 10, 2-Amino-5-[3-phenyl-1-(2-piperidin-1-ylethyl)-4-trifluoromethyl-1H-pyrazolo[3,4-b]pyridin-6-yl]benzonitrile]	more than 20%	more than 20%
CN(C)C(=O)c1cccc(-c2cc(C(F)(F)F)c3c(-c4ccccc4)nn(C)c3n2)c1 [compound 4, N,N-Dimethyl-3-(1-methyl-3-phenyl-4-trifluoromethyl-1H-pyrazolo[3,4-b]pyridin-6-yl)benzamide]	more than 20%	more than 20%
COc1ncc(-c2cc(C(F)(F)F)c3c(-c4ccccc4)nn(C)c3n2)cc1C#N [compound 9, 2-Methoxy-5-(1-methyl-3-phenyl-4-trifluoromethyl-1H-pyrazolo[3,4-b]pyridin-6-yl)nicotinonitrile]	more than 20%	more than 20%
CN(C)c1cccc(-c2cc(C(F)(F)F)c3c(-c4ccccc4)nn(C)c3n2)c1 [compound 3, Dimethyl-[3-(1-methyl-3-phenyl-4-trifluoromethyl-1H-pyrazolo[3,4-b]pyridin-6-yl)phenyl]amine]	more than 20%	more than 20%
COc1cccc(-c2n[nH]c3nc(-c4ccc(N)c(C#N)c4)cc(C(F)F)c23)c1 [compound 12, 2-Amino-5-[4-difluoromethyl-3-(3-methoxyphenyl)-1H-pyrazolo[3,4-b]pyridin-6-yl]benzonitrile]	more than 20%	more than 20%
CNC(=O)c1cc(-c2cc(C(F)(F)F)c3c(-c4ccccc4)nn(C)c3n2)ccc1F [compound 2, 2-Fluoro-N-methyl-5-(1-methyl-3-phenyl-4-trifluoromethyl-1H-pyrazolo[3,4-b]pyridin-6-yl)benzamide]	more than 20%	more than 20%
Cn1nc(-c2ccccc2)c2c(C(F)(F)F)cc(-c3cccc(NS(C)(=O)=O)c3)nc21 [compound 21, N-[3-(1-Methyl-3-phenyl-4-trifluoromethyl-1H-pyrazolo[3,4-b]pyridin-6-yl)phenyl]methanesulphonamide]	more than 20%	more than 20%
CS(=O)(=O)Nc1cccc(-c2cc(C(F)(F)F)c3c(-c4ccccc4)n[nH]c3n2)c1 [compound 13, N-[3-(3-Phenyl-4-trifluoromethyl-1H-pyrazolo[3,4-b]pyridin-6-yl)phenyl]methanesulphonamide hydrochloride]	more than 20%	more than 20%
CN(C)CCn1nc(-c2ccccc2)c2c(C(F)F)cc(-c3ccc(N)c(C#N)c3)nc21 [compound 14, 2-Amino-5-[4-difluoromethyl-1-(2-dimethylaminoethyl)-3-phenyl-1H-pyrazolo[3,4-b]pyridin-6-yl]benzonitrile]	more than 20%	more than 20%
FC(F)(F)c1cc(-c2ccc(N3CCOCC3)cc2)nc2[nH]nc(-c3ccccc3)c12 [compound 24, 6-(4-Morpholin-4-ylphenyl)-3-phenyl-4-trifluoromethyl-1H-pyrazolo[3,4-b]pyridine hydrochloride]	more than 20%	more than 20%
N#Cc1cc(-c2cc(C(F)F)c3c(-c4cccnc4)n[nH]c3n2)ccc1N [compound 11, 2-Amino-5-(4-difluoromethyl-3-pyridin-3-yl-1H-pyrazolo[3,4-b]pyridin-6-yl)benzonitrile]	more than 20%	more than 20%
CNC(=O)c1cccc(-c2cc(C(F)(F)F)c3c(-c4ccccc4)n[nH]c3n2)c1 [compound 17, N-Methyl-3-(3-phenyl-4-trifluoromethyl-1H-pyrazolo[3,4-b]pyridin-6-yl)benzamide hydrochloride]	more than 20%	more than 20%
